Test results as given in article PMC4152239.
Results are given in words; binding and its absence hold for the method and conditions named. In cells and extracts the contact can be indirect. Some binding calls cover weakened binding; strength is not graded here.

Protein sequences, listed by entry. Tags and fused reporters are not part of them. Residues count along the entry.
UniProt O08852, residues 24-4293: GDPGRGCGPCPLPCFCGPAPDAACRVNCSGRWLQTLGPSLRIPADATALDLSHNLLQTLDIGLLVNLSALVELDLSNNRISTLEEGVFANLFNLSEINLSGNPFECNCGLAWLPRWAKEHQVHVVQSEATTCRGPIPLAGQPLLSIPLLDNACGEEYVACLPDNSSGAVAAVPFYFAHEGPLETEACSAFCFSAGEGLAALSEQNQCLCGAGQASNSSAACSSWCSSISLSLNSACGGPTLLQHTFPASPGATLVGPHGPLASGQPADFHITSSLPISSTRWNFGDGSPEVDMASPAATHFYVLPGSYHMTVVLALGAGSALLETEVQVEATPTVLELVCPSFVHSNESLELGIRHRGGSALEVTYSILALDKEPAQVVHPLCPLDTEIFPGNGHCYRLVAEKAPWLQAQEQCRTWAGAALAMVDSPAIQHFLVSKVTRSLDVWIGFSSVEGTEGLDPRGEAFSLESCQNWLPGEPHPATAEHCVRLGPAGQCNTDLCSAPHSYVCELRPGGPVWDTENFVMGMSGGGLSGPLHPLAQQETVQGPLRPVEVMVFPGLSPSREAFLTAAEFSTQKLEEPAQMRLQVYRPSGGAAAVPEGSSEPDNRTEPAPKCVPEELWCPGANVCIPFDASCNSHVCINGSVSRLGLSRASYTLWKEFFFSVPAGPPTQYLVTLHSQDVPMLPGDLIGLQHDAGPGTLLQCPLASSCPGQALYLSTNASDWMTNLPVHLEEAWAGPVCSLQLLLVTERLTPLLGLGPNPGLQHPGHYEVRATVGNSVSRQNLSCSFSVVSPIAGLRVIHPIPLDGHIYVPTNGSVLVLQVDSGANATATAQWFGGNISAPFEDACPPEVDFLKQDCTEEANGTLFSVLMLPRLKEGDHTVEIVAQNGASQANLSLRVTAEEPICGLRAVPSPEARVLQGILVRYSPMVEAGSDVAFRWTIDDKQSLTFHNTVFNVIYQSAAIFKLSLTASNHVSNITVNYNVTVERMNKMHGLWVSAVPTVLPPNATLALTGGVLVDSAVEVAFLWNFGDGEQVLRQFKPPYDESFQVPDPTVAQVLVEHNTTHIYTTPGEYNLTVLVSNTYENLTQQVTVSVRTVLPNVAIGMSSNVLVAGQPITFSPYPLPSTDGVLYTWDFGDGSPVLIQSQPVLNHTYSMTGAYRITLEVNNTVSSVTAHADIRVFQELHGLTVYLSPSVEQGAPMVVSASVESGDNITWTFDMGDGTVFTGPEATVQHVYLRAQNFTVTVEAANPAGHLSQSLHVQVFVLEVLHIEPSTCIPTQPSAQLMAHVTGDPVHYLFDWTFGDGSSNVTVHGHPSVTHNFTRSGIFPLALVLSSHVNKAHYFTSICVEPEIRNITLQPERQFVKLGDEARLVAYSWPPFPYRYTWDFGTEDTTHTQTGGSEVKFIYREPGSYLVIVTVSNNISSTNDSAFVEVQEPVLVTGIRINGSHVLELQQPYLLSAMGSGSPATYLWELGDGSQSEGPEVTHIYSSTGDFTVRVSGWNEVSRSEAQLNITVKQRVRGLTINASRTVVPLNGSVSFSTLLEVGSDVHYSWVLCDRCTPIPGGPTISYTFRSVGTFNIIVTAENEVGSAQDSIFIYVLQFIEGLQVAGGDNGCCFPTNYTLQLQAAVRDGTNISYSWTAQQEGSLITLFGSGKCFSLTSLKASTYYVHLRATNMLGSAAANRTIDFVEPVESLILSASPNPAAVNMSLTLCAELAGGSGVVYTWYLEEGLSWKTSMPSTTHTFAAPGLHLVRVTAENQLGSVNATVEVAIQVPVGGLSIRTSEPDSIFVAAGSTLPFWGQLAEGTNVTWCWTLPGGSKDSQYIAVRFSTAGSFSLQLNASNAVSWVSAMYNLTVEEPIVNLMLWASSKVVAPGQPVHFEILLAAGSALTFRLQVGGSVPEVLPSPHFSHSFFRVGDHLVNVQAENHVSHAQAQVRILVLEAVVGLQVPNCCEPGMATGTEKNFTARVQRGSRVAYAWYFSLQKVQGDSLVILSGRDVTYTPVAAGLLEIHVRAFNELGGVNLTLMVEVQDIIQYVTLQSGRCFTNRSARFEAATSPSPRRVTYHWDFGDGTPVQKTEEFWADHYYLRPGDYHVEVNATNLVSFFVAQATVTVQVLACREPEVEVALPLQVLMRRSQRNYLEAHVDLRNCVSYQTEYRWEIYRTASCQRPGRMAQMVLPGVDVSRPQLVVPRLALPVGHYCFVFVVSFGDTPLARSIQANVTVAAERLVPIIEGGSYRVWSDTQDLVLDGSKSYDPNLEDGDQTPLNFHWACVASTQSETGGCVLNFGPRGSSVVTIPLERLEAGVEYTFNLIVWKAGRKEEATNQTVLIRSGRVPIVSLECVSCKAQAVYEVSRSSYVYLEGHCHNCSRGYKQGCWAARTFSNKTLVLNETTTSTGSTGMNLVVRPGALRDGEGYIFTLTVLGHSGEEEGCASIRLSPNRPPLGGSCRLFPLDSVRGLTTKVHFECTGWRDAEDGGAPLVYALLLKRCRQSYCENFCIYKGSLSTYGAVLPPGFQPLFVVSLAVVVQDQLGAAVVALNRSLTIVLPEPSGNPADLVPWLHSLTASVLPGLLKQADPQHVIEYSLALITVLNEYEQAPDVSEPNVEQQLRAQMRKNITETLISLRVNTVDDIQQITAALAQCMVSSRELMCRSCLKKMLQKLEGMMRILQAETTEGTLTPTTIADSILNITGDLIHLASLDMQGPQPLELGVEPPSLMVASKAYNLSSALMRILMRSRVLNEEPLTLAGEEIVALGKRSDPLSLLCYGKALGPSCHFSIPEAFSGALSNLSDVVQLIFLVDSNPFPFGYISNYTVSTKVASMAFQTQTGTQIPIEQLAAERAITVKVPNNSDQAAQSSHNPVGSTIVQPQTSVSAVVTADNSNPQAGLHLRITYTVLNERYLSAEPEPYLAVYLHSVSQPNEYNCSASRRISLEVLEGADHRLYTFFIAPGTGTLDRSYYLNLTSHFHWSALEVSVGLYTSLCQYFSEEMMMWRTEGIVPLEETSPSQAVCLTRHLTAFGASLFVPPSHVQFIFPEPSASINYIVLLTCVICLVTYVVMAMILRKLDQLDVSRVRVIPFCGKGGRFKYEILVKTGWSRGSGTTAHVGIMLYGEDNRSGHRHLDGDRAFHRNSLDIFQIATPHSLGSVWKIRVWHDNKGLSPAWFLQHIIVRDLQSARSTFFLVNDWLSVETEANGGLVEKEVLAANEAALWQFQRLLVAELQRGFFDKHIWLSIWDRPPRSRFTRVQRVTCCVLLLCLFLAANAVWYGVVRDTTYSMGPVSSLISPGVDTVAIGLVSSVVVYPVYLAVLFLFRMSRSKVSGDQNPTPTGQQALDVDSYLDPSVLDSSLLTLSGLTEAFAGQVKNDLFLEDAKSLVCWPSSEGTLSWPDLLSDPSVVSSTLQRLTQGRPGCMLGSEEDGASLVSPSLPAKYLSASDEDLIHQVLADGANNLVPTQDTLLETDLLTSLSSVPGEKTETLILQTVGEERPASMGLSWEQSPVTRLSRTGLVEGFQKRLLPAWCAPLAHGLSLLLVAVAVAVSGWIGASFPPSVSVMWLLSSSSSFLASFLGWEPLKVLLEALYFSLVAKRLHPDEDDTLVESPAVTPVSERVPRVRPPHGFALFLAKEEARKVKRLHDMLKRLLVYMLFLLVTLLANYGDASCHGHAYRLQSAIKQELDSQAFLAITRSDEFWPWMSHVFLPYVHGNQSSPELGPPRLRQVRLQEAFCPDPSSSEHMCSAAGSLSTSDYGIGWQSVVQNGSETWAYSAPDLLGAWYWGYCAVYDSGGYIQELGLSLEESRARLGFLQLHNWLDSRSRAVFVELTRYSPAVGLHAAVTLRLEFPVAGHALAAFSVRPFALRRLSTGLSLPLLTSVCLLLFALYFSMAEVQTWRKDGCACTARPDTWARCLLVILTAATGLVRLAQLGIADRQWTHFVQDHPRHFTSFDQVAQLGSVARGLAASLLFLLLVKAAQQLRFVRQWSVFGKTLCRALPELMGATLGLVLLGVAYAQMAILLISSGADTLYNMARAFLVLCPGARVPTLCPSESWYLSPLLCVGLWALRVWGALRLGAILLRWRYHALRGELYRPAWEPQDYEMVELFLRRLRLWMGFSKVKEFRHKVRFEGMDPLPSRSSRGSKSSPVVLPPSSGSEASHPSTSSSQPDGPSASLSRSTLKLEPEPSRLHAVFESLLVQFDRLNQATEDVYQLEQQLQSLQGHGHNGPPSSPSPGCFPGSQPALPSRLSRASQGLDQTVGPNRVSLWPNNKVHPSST

What was measured:
[1] = molecular target: epidermal growth factor receptor (human, RCTE cells) (human (endogenous in RCTE)) (UniProt P00533); test: co-IP; EGFR immunoprecipitated with Santa Cruz pAb from lysates of polarized RCTE or MO6-G3 cells (5 days post-confluency); lysis buffer 0.5% NP40, 10 mM Tris-HCl pH 7.4, 150 mM NaCl, 5 mM EDTA, 60 mM octylglucoside; 4°C; immunoblot; normal rabbit IgG as negative control
[2] = molecular target: polycystin-1 (mouse, MO6-G3 odontoblasts) (mouse (endogenous in MO6-G3)) (UniProt O08852); test: co-IP; PC1 immunoprecipitated with NM002 pAb from lysates of polarized RCTE or MO6-G3 cells (5 days post-confluency); lysis buffer 0.5% NP40, 10 mM Tris-HCl pH 7.4, 150 mM NaCl, 5 mM EDTA, 60 mM octylglucoside; 4°C; immunoblot; normal rabbit IgG as negative control
[3] = molecular target: epidermal growth factor receptor (mouse, MO6-G3 odontoblasts) (mouse (endogenous in MO6-G3)) (UniProt Q01279); test: co-IP; EGFR immunoprecipitated with Santa Cruz pAb from lysates of polarized RCTE or MO6-G3 cells (5 days post-confluency); lysis buffer 0.5% NP40, 10 mM Tris-HCl pH 7.4, 150 mM NaCl, 5 mM EDTA, 60 mM octylglucoside; 4°C; immunoblot; normal rabbit IgG as negative control
[4] = molecular target: polycystin-1 (human, RCTE cells) (human (endogenous in RCTE)) (UniProt P98161); test: co-IP; PC1 immunoprecipitated with NM002 pAb from lysates of polarized RCTE or MO6-G3 cells (5 days post-confluency); lysis buffer 0.5% NP40, 10 mM Tris-HCl pH 7.4, 150 mM NaCl, 5 mM EDTA, 60 mM octylglucoside; 4°C; immunoblot; normal rabbit IgG as negative control

Row | Binder | binding [1] | binding [2] | binding [3] | binding [4]
1 | polycystin-2 (human, RCTE cells) (protein, UniProt Q13563 1-968) MVNSSRVQPQQPGDAKRPPAPRAPDPGRLMAGCAAVGASLAAPGGLCEQRGLEIEMQRIRQAAARDPPAGAAASPSPPLSSCSRQAWSRDNPGFEAEEEEEEVEGEEGGMVVEMDVEWRPGSRRSAASSAVSSVGARSRGLGGYHGAGHPSGRRRRREDQGPPCPSPVGGGDPLHRHLPLEGQPPRVAWAERLVRGLRGLWGTRLMEESSTNREKYLKSVLRELVTYLLFLIVLCILTYGMMSSNVYYYTRMMSQLFLDTPVSKTEKTNFKTLSSMEDFWKFTEGSLLDGLYWKMQPSNQTEADNRSFIFYENLLLGVPRIRQLRVRNGSCSIPQDLRDEIKECYDVYSVSSEDRAPFGPRNGTAWIYTSEKDLNGSSHWGIIATYSGAGYYLDLSRTREETAAQVASLKKNVWLDRGTRATFIDFSVYNANINLFCVVRLLVEFPATGGVIPSWQFQPLKLIRYVTTFDFFLAACEIIFCFFIFYYVVEEILEIRIHKLHYFRSFWNCLDVVIVVLSVVAIGINIYRTSNVEVLLQFLEDQNTFPNFEHLAYWQIQFNNIAAVTVFFVWIKLFKFINFNRTMSQLSTTMSRCAKDLFGFAIMFFIIFLAYAQLAYLVFGTQVDDFSTFQECIFTQFRIILGDINFAEIEEANRVLGPIYFTTFVFFMFFILLNMFLAIINDTYSEVKSDLAQQKAEMELSDLIRKGYHKALVKLKLKKNTVDDISESLRQGGGKLNFDELRQDLKGKGHTDAEIEAIFTKYDQDGDQELTEHEHQQMRDDLEKEREDLDLDHSSLPRPMSSRSFPRSLDDSEEDDDEDSGHSSRRRGSISSGVSYEEFQVLVRRVDRMEHSIGSIVSKIDAVIVKLEIMERAKLKRREVLGRLLDGVAEDERLGRDSEIHREQMERLVREELERWESDDAASQISHGLGTPVGLNGQPRPRSSRPSSSQSTEGMEGAGGNGSSNVHV | binds | – | – | –
2 | polycystin-2 (mouse, MO6-G3 odontoblasts) (protein, UniProt O35245 1-966) MVNSRRVQPQPPGDAGRSPAPRASGPGRLVAGGAGLAVPGGLGEQRGLEIEMERIRQAAARDPPAGASASPSPPLSSCSRQAWSRDNPGFEAEEDDDDDEVEGEEGGMVVEMDVEWRPGSRRSASSSAVSSVGARGRGLGSYRGAAHLSGRRRRLEDQGAQCPSPAGGGDPLHRHLPLEGQPPRVAWAERLVRGLRGLWGTRLMEESNANREKYLKSVLRELVTYLFFLVVLCILTYGMMSSNVYYYTRTLSQLFIDTPVSKTEKTNFKTLSSMEDFWKFTEGSFLDGLYWKAQTSNHTQADNRSFIFYENLLLGVPRLRQLRVRNGSCSIPQDLRDEIKECYDVYSVSSEDRAPFGPRNGTAWMYTSEKELNGSSHWGIIASYSGAGYYLDLSRTREETAAQLAGLRRNFWLDRGTRAAFIDFSVYNANINLFCVVRLLAEFPATGGVVPSWQFQPVKLIRYVTAFDFFLAACEIIFCFFIIYYVVEEILEIRIHRLSYFRSFWNCLDVVIVVLSVVAMVINIYRMSNAEGLLQFLEDQNSFPNFEHVAYWQIQFNNISAVMVFLVWIKLFKFINFNRTMSQLSTTMSRCAKDLFGFTIMFSIIFLAYAQLAYLVFGTQVDDFSTFQECIFTQFRIILGDINFAEIEEANRVLGPLYFTTFVFFMFFILLNMFLAIINDSYSEVKSDLAQQKAEMELSDLIRKGCQKALVKLKLKRNTVDAISESLRQGGGKLNFDELRQDLKGKGHTDAEIEAIFTKYDQDGDQELTEREHQQMRDDLEKEREDLDLEHSSLPRPMSSRSFPRSLDDSEEEDDEDSGHSSRRRGSISSGVSYEEFQVLVRRVDRMEHSIGSIVSKIDAVIVKLEIMERAKLKRREVLGRLLDGVAEDARLGRDSEIHREQMERLVREELERWESDDAASQTGHGVSTQVGLGGQPHPRNPRPPSSQSAEGLEGGGGNGSANVHA | – | binds | binds | –
3 | OFD1 protein (human, RCTE cells) (protein, UniProt O75665 1-1012) MMAQSNMFTVADVLSQDELRKKLYQTFKDRGILDTLKTQLRNQLIHELMHPVLSGELQPRSISVEGSSLLIGASNSLVADHLQRCGYEYSLSVFFPESGLAKEKVFTMQDLLQLIKINPTSSLYKSLVSGSDKENQKGFLMHFLKELAEYHQAKESCNMETQTSSTFNRDSLAEKLQLIDDQFADAYPQRIKFESLEIKLNEYKREIEEQLRAEMCQKLKFFKDTEIAKIKMEAKKKYEKELTMFQNDFEKACQAKSEALVLREKSTLERIHKHQEIETKEIYAQRQLLLKDMDLLRGREAELKQRVEAFELNQKLQEEKHKSITEALRRQEQNIKSFEETYDRKLKNELLKYQLELKDDYIIRTNRLIEDERKNKEKAVHLQEELIAINSKKEELNQSVNRVKELELELESVKAQSLAITKQNHMLNEKVKEMSDYSLLKEEKLELLAQNKLLKQQLEESRNENLRLLNRLAQPAPELAVFQKELRKAEKAIVVEHEEFESCRQALHKQLQDEIEHSAQLKAQILGYKASVKSLTTQVADLKLQLKQTQTALENEVYCNPKQSVIDRSVNGLINGNVVPCNGEISGDFLNNPFKQENVLARMVASRITNYPTAWVEGSSPDSDLEFVANTKARVKELQQEAERLEKAFRSYHRRVIKNSAKSPLAAKSPPSLHLLEAFKNITSSSPERHIFGEDRVVSEQPQVGTLEERNDVVEALTGSAASRLRGGTSSRRLSSTPLPKAKRSLESEMYLEGLGRSHIASPSPCPDRMPLPSPTESRHSLSIPPVSSPPEQKVGLYRRQTELQDKSEFSDVDKLAFKDNEEFESSFESAGNMPRQLEMGGLSPAGDMSHVDAAAAAVPLSYQHPSVDQKQIEEQKEEEKIREQQVKERRQREERRQSNLQEVLERERRELEKLYQERKMIEESLKIKIKKELEMENELEMSNQEIKDKSAHSENPLEKYMKIIQQEQDQESADKSSKKMVQEGSLVDTLQSSDKVESLTGFSHEELDDSW | binds | – | – | binds

Continued, values first:

Row | binding [1] | binding [2] | binding [3] | binding [4] | Binder
4 | – | binds | binds | – | OFD1 protein (mouse, MO6-G3 odontoblasts) (protein, UniProt Q80Z25 1-1017) MAQSNMPHKSDVLSQDELRKKLYQTFKDRGVLDTLQTQLRNQLIHELMHPVLSGEVKPPSISVEGSALLIGASNSLVADHLQRCGYEYSLSVFFPESGLAKEKIFTMQDLLQLIRINPSSSLYKSLISGFDKENKKGFLMSFLKELAEYYQAKESCDAETQTSTTFPSQVSLAEKFQLIDAQFADGFPHRSKLESLETKLNEYKKEVQHQLQVEMCHKLKYFREAEITKVKMEERRKYEKELAEFQNEFERTCQAKNEALISQEKNSLERIKKHREMESKEIYAQRQLLLNDIALLRGREAELKERIETFELTQKLQEEKIKSEAEALERREQNLKNIEDTYDQKLKTELLKYQLELKDDYITRTNKLLEEERKNKEKTIHLQEELTVINSKKEELSKSVKHMKEVELELESVKAQFLAISKQNHLLNEKVREMSDYSQLKEEKVELQAQNKLLKLQLEETRNENLRLLDRITQPPPELVIFQKELQKTEKAMELEHKDFETHRQALEKQLQSEIENSAQLRTQIAEYDASVKRLTVQVAELKSQLKQTQIALENEVYRNPKHSLIHSLSGLLLSGKMAPHSEDKSGDFLNVPLEQNKVIAGAVMSRVPPYVNTATEASSPESDFEFIASSTKAKVRELEQEAERLEKAFRTYYQRATQNPSTSPQPAKSPPSVNSVAALRSIASSSMDRPVSAEDRVVSEQPLGDMLKEEMSDMSKAFMGSVVSRPRRTSSSTRLSSTPHPKSRRSLDNEMYLEGLGRLHMTSSSPLLDRVSASPAASPSPCPERTAQASPVPSRHSFSGLPEQNACLYQRQTETQDKSELSNVDKQSLKDEKFEPPFRWNKTEQFEAEGLHPAGDMPGIDFAVATQSSRLISYDYPSAVQSQTGEQDEQELWELHMKERRQREEQRHNERQEALERERRELGKLEQERRMIEESLKMEMEEELEKSVQDQKDKSAHCENTLEKYMKIIQQRQEESNADKSSKKSGKECSLVDMMMPSDKDESSPGFSHEEPDDMW
5 | binds | – | – | binds | flotillin-2 (human, RCTE cells) (protein, UniProt Q14254 1-428) MGNCHTVGPNEALVVSGGCCGSDYKQYVFGGWAWAWWCISDTQRISLEIMTLQPRCEDVETAEGVALTVTGVAQVKIMTEKELLAVACEQFLGKNVQDIKNVVLQTLEGHLRSILGTLTVEQIYQDRDQFAKLVREVAAPDVGRMGIEILSFTIKDVYDKVDYLSSLGKTQTAVVQRDADIGVAEAERDAGIREAECKKEMLDVKFMADTKIADSKRAFELQKSAFSEEVNIKTAEAQLAYELQGAREQQKIRQEEIEIEVVQRKKQIAVEAQEILRTDKELIATVRRPAEAEAHRIQQIAEGEKVKQVLLAQAEAEKIRKIGEAEAAVIEAMGKAEAERMKLKAEAYQKYGDAAKMALVLEALPQIAAKIAAPLTKVDEIVVLSGDNSKVTSEVNRLLAELPASVHALTGVDLSKIPLIKKATGVQV
6 | – | binds | binds | – | flotillin-2 (mouse, MO6-G3 odontoblasts) (protein, UniProt Q60634 1-428) MGNCHTVGPNEALVVSGGCCGSDYKQYVFGGWAWAWWCISDTQRISLEIMTLQPRCEDVETAEGVALTVTGVAQVKIMTEKELLAVACEQFLGKNVQDIKNVVLQTLEGHLRSILGTLTVEQIYQDRDQFAKLVREVAAPDVGRMGIEILSFTIKDVYDKVDYLSSLGKTQTAVVQRDADIGVAEAERDAGIREAECKKEMLDVKFMADTKIADSKRAFELQKSAFSEEVNIKTAEAQLAYELQGAREQQKIRQEEIEIEVVQRKKQIAVEAQEILRTDKELIATVRRPAEAEAHRIQQIAEGEKVKQVLLAQAEAEKIRKIGEAEAAVIEAMGKAEAERMKLKAEAYQKYGDAAKMALVLEALPQIAAKISAPLTKVDEIVVLSGDNSKVTSEVNRLLAELPASVHALTGVDLSKIPLIKNATGAQV
